Results: paper PMC10238197, “Deafness‐Associated ADGRV1 Mutation Impairs USH2A Stability through Improper Phosphorylation of WHRN and WDSUB1 Recruitment” (Advanced Science, 2023)
Substitutions are numbered along the chain they refer to. These are yes or no findings as the source states them, for the method shown. Binding seen in cells or lysates may run through a third protein. Some binding calls cover weakened binding; strength is not graded here. Tags and fused reporters may be left off the sequences shown.

Key:
Test in all cases: FRET or BRET; intermolecular FlAsH-BRET saturation in HEK293 cells: fixed amount of WHRN-Nluc, increasing ADGRV1-FlAsH or USH2A-FlAsH; 2.5 µM FlAsH-EDT2, 5 µM coelenterazine-h; net BRET Em530/Em485
[1] = target: T1, WHRN-Nluc (Z1-L) I157A (mouse) (UniProt Q80VW5)
T1 sequence: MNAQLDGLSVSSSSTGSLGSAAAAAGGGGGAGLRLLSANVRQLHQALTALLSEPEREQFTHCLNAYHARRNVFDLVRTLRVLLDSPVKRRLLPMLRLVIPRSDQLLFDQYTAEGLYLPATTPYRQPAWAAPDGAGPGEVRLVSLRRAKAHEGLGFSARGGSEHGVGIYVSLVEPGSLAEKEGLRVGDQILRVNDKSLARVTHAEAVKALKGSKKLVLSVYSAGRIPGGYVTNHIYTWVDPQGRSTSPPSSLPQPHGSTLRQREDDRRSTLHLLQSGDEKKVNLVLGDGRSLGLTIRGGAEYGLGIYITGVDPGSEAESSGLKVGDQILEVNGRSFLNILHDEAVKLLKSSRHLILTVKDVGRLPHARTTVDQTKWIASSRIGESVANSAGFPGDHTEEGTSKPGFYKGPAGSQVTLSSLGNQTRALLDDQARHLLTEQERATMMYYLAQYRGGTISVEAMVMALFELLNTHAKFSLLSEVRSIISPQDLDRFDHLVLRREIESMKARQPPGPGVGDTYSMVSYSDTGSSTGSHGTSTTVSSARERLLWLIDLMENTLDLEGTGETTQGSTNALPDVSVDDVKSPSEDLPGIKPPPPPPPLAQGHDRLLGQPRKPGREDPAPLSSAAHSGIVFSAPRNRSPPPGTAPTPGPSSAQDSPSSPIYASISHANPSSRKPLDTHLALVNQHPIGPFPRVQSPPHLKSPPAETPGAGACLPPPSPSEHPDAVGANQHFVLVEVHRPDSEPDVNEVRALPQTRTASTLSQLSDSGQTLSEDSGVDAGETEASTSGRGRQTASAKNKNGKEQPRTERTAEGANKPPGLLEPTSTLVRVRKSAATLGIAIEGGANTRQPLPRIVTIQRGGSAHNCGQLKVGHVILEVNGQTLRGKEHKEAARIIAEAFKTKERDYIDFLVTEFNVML

[2] = target: T2, WHRN-Nluc (Z1-L) V206A (mouse) (UniProt Q80VW5)
T2 sequence: T1 sequence with A157I, V206A

[3] = target: T3, WHRN-Nluc (Z1-L) K207A (mouse) (UniProt Q80VW5)
T3 sequence: T1 sequence with A157I, K207A

Measured: binding

B1: USH2A-FlAsH (domain or fragment, UniProt Q2QI47 4819-5193)
chain: PPSGLSPPQVQTLGSRMASVHWTPPLLPNGVIHSYELQLQRACPPDSAPRCPPSHTERKYWGPGHRASLAGLQPNTAYGVQVVAYNEAGSTASGWTNFSTKKEMPQYQALFSVDSNASMVWVDWSGTFLLNGHLKEYVVTDGGRRVYSGLDTTLYIPRMVDKIFFFQVTCTTDIGSVKTPLVQYDAATGSGLVLTTPGEKKGAGTKSTEFYSELWFIMVMAVVGLILLAIFLSLILQRKIHKEPCIRERPPLVPLQKRMTPLSVYPPGETHVGLADTRLPRSGTPMSIRSSQSVSVLRIPSQSQLSHAYSQSSLHRSVSQLMDMADKKVVTEDSLWETIMGHSSGLYVDEEELMNAIKGFSSVTKEHTAFTDTHL
modifications: FlAsH-EDT2 label on the CCPGCC motif
binds: all assays above
